From PMC2997501, “Different Residues on the Surface of the Methanothermobacter thermautotrophicus MCM Helicase Interact with Single- and Double-Stranded DNA” (Archaea, 2010)
Residue numbers refer to the chain shown, from its start. For at least one entry, the source does not settle the construct or the ends of the probe. For part of these data: Weaker means in comparison with the reference protein, sequence or condition of that experiment. At least one verdict was read from the data and is not stated in words by the source. Tags and fusion partners may be left off the protein sequences shown.

Experiments:
Assay in all cases: filter binding
[1] = biological target: T1, MCM D212N (Methanothermobacter thermautotrophicus) (UniProt O27798); settings: 10 mM Mg2+, 25 mM Hepes-NaOH pH 7.5, 2 mM DTT, 10 mM MgCl2, 100 ug/ml BSA, 50 fmol 32P-DNA in 20 ul, 10/30/90 nM MCM monomer (25 nM for the ATP test), 60 C, 10 min, recombinant protein, residues 1-666, protein details: C-terminal His6, label: 32P (T4 PNK, 5' end)
T1 sequence (looked up): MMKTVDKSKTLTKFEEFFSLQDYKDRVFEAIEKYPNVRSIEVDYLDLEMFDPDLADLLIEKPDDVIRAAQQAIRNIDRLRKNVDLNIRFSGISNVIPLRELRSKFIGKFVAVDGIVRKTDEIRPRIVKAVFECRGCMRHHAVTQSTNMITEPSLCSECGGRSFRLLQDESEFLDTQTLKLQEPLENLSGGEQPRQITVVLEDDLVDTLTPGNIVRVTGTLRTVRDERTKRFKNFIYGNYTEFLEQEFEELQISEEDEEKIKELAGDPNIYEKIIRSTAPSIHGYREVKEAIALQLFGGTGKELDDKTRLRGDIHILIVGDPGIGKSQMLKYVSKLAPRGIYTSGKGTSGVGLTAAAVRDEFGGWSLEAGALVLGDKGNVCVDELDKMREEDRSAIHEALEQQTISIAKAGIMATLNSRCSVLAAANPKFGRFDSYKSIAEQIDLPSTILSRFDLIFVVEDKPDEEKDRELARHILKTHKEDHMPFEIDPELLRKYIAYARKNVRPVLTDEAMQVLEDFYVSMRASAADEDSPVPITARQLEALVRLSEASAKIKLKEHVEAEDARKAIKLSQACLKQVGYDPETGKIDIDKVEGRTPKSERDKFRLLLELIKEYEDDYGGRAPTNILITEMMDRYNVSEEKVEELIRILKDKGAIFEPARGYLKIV

[2] = biological target: T2, MCM V214A (Methanothermobacter thermautotrophicus) (UniProt O27798); settings: 10 mM Mg2+, 25 mM Hepes-NaOH pH 7.5, 2 mM DTT, 10 mM MgCl2, 100 ug/ml BSA, 50 fmol 32P-DNA in 20 ul, 10/30/90 nM MCM monomer (25 nM for the ATP test), 60 C, 10 min, recombinant protein, residues 1-666, protein details: C-terminal His6, label: 32P (T4 PNK, 5' end)
T2 sequence (looked up): T1 sequence (looked up) with N212D, V214A

[3] = biological target: T3, MCM wild-type (Methanothermobacter thermautotrophicus) (UniProt O27798); settings: 10 mM Mg2+, 25 mM Hepes-NaOH pH 7.5, 2 mM DTT, 10 mM MgCl2, 100 ug/ml BSA, 50 fmol 32P-DNA in 20 ul, 10/30/90 nM MCM monomer (25 nM for the ATP test), 60 C, 10 min, recombinant protein, residues 1-666, protein details: C-terminal His6, label: 32P (T4 PNK, 5' end)
T3 sequence (looked up): T1 sequence (looked up) with N212D

[4] = biological target: T4, MCM PG210,211GA P210G,G211A (Methanothermobacter thermautotrophicus) (UniProt O27798); settings: 10 mM Mg2+, 25 mM Hepes-NaOH pH 7.5, 2 mM DTT, 10 mM MgCl2, 100 ug/ml BSA, 50 fmol 32P-DNA in 20 ul, 10/30/90 nM MCM monomer (25 nM for the ATP test), 60 C, 10 min, recombinant protein, residues 1-666, protein details: C-terminal His6, label: 32P (T4 PNK, 5' end)
T4 sequence (looked up): T1 sequence (looked up) with P210G, G211A, N212D

[5] = biological target: T5, MCM G218A (Methanothermobacter thermautotrophicus) (UniProt O27798); settings: 1 mM ATP, 10 mM Mg2+; 25 mM Hepes-NaOH pH 7.5, 2 mM DTT, 10 mM MgCl2, 100 ug/ml BSA, 50 fmol 32P-DNA in 20 ul, 10/30/90 nM MCM monomer (25 nM for the ATP test), 60 C, 10 min; recombinant protein; residues 1-666; protein details: C-terminal His6; label: 32P (T4 PNK, 5' end); single-stranded DNA
T5 sequence (looked up): T1 sequence (looked up) with N212D, G218A

[6] = biological target: T6, MCM Q176A (Methanothermobacter thermautotrophicus) (UniProt O27798); settings: 10 mM Mg2+, 25 mM Hepes-NaOH pH 7.5, 2 mM DTT, 10 mM MgCl2, 100 ug/ml BSA, 50 fmol 32P-DNA in 20 ul, 10/30/90 nM MCM monomer (25 nM for the ATP test), 60 C, 10 min, recombinant protein, residues 1-666, protein details: C-terminal His6, label: 32P (T4 PNK, 5' end), single-stranded DNA
T6 sequence (looked up): T1 sequence (looked up) with Q176A, N212D

[7] = biological target: T7, MCM P210G (Methanothermobacter thermautotrophicus) (UniProt O27798); settings: 1 mM ATP, 10 mM Mg2+; 25 mM Hepes-NaOH pH 7.5, 2 mM DTT, 10 mM MgCl2, 100 ug/ml BSA, 50 fmol 32P-DNA in 20 ul, 10/30/90 nM MCM monomer (25 nM for the ATP test), 60 C, 10 min; recombinant protein; residues 1-666; protein details: C-terminal His6; label: 32P (T4 PNK, 5' end); single-stranded DNA
T7 sequence (looked up): T1 sequence (looked up) with P210G, N212D

[8] = biological target: T8, MCM G211A (Methanothermobacter thermautotrophicus) (UniProt O27798); settings: 1 mM ATP, 10 mM Mg2+; 25 mM Hepes-NaOH pH 7.5, 2 mM DTT, 10 mM MgCl2, 100 ug/ml BSA, 50 fmol 32P-DNA in 20 ul, 10/30/90 nM MCM monomer (25 nM for the ATP test), 60 C, 10 min; recombinant protein; residues 1-666; protein details: C-terminal His6; label: 32P (T4 PNK, 5' end); single-stranded DNA
T8 sequence (looked up): T1 sequence (looked up) with G211A, N212D

Row | Sequence | binding result ([1]; no ATP) | binding result ([2]; no ATP) | binding result ([3]; no ATP) | binding result ([4]; no ATP) | binding result [5] | binding result ([1]; 1 mM ATP, single-stranded DNA) | binding result ([1]; no ATP, single-stranded DNA) | binding result ([2]; 1 mM ATP, single-stranded DNA) | binding result ([3]; 1 mM ATP, single-stranded DNA) | binding result ([3]; no ATP, single-stranded DNA) | binding result ([6]; 1 mM ATP) | binding result ([6]; no ATP) | binding result [7] | binding result [8] | binding result ([4]; 1 mM ATP, single-stranded DNA)
1 | GCAGATAACAGTTGTCCTGGAGAACGACCTGGTTGACACCCTCACACCC (double strand) [49-mer dsDNA] | binds more weakly | binds more weakly | binds | binds more weakly |  |  |  |  |  |  |  |  |  |  | 
2 | GCAGATAACAGTTGTCCTGGAGAACGACCTGGTTGACACCCTCACACCC [49-mer ssDNA] |  |  |  |  | binds | binds | binds more weakly | binds | binds | binds | binds | binds more weakly | binds | binds | binds
